Source: doi:10.1101/2025.11.30.691455
These are yes or no findings as the source states them, for the method shown. Binding seen in cells or lysates may run through a third protein. Some entries that bind do so weakly or less than the wild type. Tags and fused reporters may be left off the sequences shown.

Chains of the proteins cited; added tags and fusions are not shown. Lines headed by an entry give the natural chain unless they say otherwise; changes in a name come on top.
UniProt Q13283: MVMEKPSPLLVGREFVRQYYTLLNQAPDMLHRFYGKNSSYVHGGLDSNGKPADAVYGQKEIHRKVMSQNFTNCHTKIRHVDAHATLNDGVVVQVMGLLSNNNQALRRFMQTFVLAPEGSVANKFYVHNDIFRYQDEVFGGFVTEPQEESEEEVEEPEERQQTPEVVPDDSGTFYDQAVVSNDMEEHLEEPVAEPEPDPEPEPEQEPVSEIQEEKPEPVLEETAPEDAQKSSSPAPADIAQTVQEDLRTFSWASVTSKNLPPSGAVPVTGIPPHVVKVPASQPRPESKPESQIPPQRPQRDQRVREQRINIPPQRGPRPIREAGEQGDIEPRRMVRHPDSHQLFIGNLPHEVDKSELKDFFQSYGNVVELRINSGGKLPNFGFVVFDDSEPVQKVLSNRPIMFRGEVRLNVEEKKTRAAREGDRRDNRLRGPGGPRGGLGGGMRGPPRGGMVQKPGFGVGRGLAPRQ
UniProt Q14157: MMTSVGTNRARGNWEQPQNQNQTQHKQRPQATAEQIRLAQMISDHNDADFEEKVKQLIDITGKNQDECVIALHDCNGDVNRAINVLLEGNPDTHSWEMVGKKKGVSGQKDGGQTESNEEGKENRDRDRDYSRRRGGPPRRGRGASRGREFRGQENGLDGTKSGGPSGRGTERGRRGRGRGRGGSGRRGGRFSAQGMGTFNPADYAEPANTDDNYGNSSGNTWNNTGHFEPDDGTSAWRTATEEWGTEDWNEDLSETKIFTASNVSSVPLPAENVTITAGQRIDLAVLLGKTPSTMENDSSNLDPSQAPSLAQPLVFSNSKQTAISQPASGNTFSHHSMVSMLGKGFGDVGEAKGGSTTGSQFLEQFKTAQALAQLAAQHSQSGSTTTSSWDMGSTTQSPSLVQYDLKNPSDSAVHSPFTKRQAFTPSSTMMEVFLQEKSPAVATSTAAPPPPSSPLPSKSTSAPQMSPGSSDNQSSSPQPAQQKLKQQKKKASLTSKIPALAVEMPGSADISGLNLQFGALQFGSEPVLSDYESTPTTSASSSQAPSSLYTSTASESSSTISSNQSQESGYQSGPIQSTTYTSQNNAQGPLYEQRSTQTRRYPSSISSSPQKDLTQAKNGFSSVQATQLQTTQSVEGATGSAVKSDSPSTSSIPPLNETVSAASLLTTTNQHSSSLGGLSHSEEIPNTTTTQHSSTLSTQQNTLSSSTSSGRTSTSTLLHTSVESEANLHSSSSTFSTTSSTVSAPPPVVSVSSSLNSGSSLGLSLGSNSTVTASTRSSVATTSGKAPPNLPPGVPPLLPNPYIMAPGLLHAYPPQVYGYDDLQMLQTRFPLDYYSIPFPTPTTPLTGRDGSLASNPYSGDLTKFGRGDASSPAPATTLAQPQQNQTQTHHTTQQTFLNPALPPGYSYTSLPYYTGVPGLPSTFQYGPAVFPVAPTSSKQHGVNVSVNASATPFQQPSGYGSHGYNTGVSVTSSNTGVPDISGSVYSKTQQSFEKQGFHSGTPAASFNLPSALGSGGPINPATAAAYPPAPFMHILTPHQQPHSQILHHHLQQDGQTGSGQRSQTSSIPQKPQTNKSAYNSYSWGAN

B1: ATXN2, GFP or mCherry fusion expressed in cells, Q99700 1-1313 (protein)
chain: MRSAAAAPRSPAVATESRRFAAARWPGWRSLQRPARRSGRGGGGAAPGPYPSAAPPPPGPGPPPSRQSSPPSASDCFGSNGNGGGAFRPGSRRLLGLGGPPRPFVVLLLPLASPGAPPAAPTRASPLGARASPPRSGVSLARPAPGCPRPACEPVYGPLTMSLKPQQQQQQQQQQQQQQQQQQQQQQQPPPAAANVRKPGGSGLLASPAAAPSPSSSSVSSSSATAPSSVVAATSGGGRPGLGRGRNSNKGLPQSTISFDGIYANMRMVHILTSVVGSKCEVQVKNGGIYEGVFKTYSPKCDLVLDAAHEKSTESSSGPKREEIMESILFKCSDFVVVQFKDMDSSYAKRDAFTDSAISAKVNGEHKEKDLEPWDAGELTANEELEALENDVSNGWDPNDMFRYNEENYGVVSTYDSSLSSYTVPLERDNSEEFLKREARANQLAEEIESSAQYKARVALENDDRSEEEKYTAVQRNSSEREGHSINTRENKYIPPGQRNREVISWGSGRQNSPRMGQPGSGSMPSRSTSHTSDFNPNSGSDQRVVNGGVPWPSPCPSPSSRPPSRYQSGPNSLPPRAATPTRPPSRPPSRPSRPPSHPSAHGSPAPVSTMPKRMSSEGPPRMSPKAQRHPRNHRVSAGRGSISSGLEFVSHNPPSEAATPPVARTSPSGGTWSSVVSGVPRLSPKTHRPRSPRQNSIGNTPSGPVLASPQAGIIPTEAVAMPIPAASPTPASPASNRAVTPSSEAKDSRLQDQRQNSPAGNKENIKPNETSPSFSKAENKGISPVVSEHRKQIDDLKKFKNDFRLQPSSTSESMDQLLNKNREGEKSRDLIKDKIEPSAKDSFIENSSSNCTSGSSKPNSPSISPSILSNTEHKRGPEVTSQGVQTSSPACKQEKDDKEEKKDAAEQVRKSTLNPNAKEFNPRSFSQPKPSTTPTSPRPQAQPSPSMVGHQQPTPVYTQPVCFAPNMMYPVPVSPGVQPLYPIPMTPMPVNQAKTYRAVPNMPQQRQDQHHQSAMMHPASAAGPPIAATPPAYSTQYVAYSPQQFPNQPLVQHVPHYQSQHPHVYSPVIQGNARMMAPPTHAQPGLVSSSATQYGAHEQTHAMYACPKLPYNKETSPSFYFAISTGSLAQQYAHPNATLHPHTPHPQPSATPTGQQQSQHGGSHPAPSPVQHHQHQAAQALHLASPQQQSAIYHAGLAPTPPSMTPASNTQSPQNSFPAAQQTVFTIHPSHVQPAYTNPPHMAHVPQAHVQSGMVPSHPTAHAPMMLMTTQPPGGPQAALAQSALQPIPVSTTAHFPYMTHPSVQAHHQQQL
B2: NUFIP2, GFP or mCherry fusion expressed in cells (protein, UniProt Q7Z417 1-695)
chain: MEEKPGQPQPQHHHSHHHPHHHPQQQQQQPHHHHHYYFYNHSHNHHHHHHHQQPHQYLQHGAEGSPKAQPKPLKHEQKHTLQQHQETPKKKTGYGELNGNAGEREISLKNLSSDEATNPISRVLNGNQQVVDTSLKQTVKANTFGKAGIKTKNFIQKNSMDKKNGKSYENKSGENQSVDKSDTIPIPNGVVTNNSGYITNGYMGKGADNDGSGSESGYTTPKKRKARRNSAKGCENLNIVQDKIMQQETSVPTLKQGLETFKPDYSEQKGNRVDGSKPIWKYETGPGGTSRGKPAVGDMLRKSSDSKPGVSSKKFDDRPKGKHASAVASKEDSWTLFKPPPVFPVDNSSAKIVPKISYASKVKENLNKTIQNSSVSPTSSSSSSSSTGETQTQSSSRLSQVPMSALKSVTSANFSNGPVLAGTDGNVYPPGGQPLLTTAANTLTPISSGTDSVLQDMSLTSAAVEQIKTSLFIYPSNMQTMLLSTAQVDLPSQTDQQNLGDIFQNQWGLSFINEPSAGPETVTGKSSEHKVMEVTFQGEYPATLVSQGAEIIPSGTEHPVFPKAYELEKRTSPQVLGSILKSGTTSESGALSLEPSHIGDLQKADTSSQGALVFLSKDYEIESQNPLASPTNTLLGSAKEQRYQRGLERNDSWGSFDLRAAIVYHTKEMESIWNLQKQDPKRIITYNEAMDSPDQ

Tests used:
[1] = biological target: G3BP1 in the IP-WB of Figures S6A and S6E (human) (UniProt Q13283); test: co-IP
[2] = biological target: G3BP1 in the IP-WB of Figures S6A and S6E (human), Q13283; test: co-IP; details: remark: other sources report otherwise

Row | Molecule | binding [1] | binding [2]
1 | UBAP2L, GFP or mCherry fusion expressed in cells (from UniProt Q14157 1-1087) | binds | –
2 | B1 | – | no binding
3 | B2 | binds | –
